Values of other authors, collected in patent US9206100B2, “Route to synthetic analogues of Rocaglamide and Aglafoline using cascade transformations initiated by oxy-cope rearrangement of bis-alkynes” (The Florida State University Research Foundation, Inc., priority 2010, dated 2015).
Some results were stated once for a whole list of compounds, not compound by compound. At least one compound was matched to its structure with a doubt left.

Test system: variety of human cancer cell lines

COC(=O)[C@H]1[C@@H](O)[C@@]2(O)c3c(OC)cc(OC)cc3O[C@@]2(c2ccc(OC)cc2)[C@@H]1c1ccccc1 [Aglafoline]
IC50 values, cytostatic and cytotoxic activity: 1.0 to 6.0 ng/mL
